Measured values reported in publication PMC9474883, “Novel tricyclic small molecule inhibitors of Nicotinamide N-methyltransferase for the treatment of metabolic disorders” (Scientific Reports, 2022).
The amount applied is not stated for every result.

System: NNMT (endogenous MNA levels)
Assay: Determination of MNA in cells (Target engagement)
Assay type: cell-based, human
Description: As next steps, cellular assays using the human U2OS cell line were carried out. This assay, described in[6], measures inhibition of endogenous NNMT, without recombinant expression, by quantification of MNA via LC–MS/MS. […] EC50 values were higher by a factor of ~ 30 compared to IC50 values on the isolated recombinant hNNMT, probably reflecting low cell membrane permeability.

Compound	time point after addition of compound at which maximal MNA reduction was observed
Br.CN1Cc2cc(F)cc3c2N(CCO3)C1=N [Compound (18)]	0.5 h
Br.CN1Cc2c(F)c(F)cc3c2N(CC3)C1=N [Compound (9), 8,9-difluoro-2-methyl-1,2,5,6-tetrahydro-3H-pyrrolo[3,2,1-ij]quinazolin-3-imine hydrobromide]	0.25 h
CN1Cc2cc(F)cc3c2N(CCC3)C1=N [Compound (2)]	0.5 h
CN1Cc2cccc3c2N(CCC3)C1=N [Compound (1)]	0.5 h
CN1Cc2c(F)c(F)cc3c2N(CCC3)C1=N [Compound (3)]	1.0 h
CN1Cc2cccc3c2N(CCS3)C1=N [Compound (13)]	1.0 h
